Data taken from doi:10.1101/2024.03.04.582938.
Results are given in words; binding and its absence hold for the method and conditions named. Binding seen in cells or lysates may run through a third protein. Some results given as binding are weak or reduced against the parent protein; the word gives no strength.

Amino acid sequences for entries named in this document (tags omitted). Residues count along the entry.
UniProt P98161, residues 24-4303: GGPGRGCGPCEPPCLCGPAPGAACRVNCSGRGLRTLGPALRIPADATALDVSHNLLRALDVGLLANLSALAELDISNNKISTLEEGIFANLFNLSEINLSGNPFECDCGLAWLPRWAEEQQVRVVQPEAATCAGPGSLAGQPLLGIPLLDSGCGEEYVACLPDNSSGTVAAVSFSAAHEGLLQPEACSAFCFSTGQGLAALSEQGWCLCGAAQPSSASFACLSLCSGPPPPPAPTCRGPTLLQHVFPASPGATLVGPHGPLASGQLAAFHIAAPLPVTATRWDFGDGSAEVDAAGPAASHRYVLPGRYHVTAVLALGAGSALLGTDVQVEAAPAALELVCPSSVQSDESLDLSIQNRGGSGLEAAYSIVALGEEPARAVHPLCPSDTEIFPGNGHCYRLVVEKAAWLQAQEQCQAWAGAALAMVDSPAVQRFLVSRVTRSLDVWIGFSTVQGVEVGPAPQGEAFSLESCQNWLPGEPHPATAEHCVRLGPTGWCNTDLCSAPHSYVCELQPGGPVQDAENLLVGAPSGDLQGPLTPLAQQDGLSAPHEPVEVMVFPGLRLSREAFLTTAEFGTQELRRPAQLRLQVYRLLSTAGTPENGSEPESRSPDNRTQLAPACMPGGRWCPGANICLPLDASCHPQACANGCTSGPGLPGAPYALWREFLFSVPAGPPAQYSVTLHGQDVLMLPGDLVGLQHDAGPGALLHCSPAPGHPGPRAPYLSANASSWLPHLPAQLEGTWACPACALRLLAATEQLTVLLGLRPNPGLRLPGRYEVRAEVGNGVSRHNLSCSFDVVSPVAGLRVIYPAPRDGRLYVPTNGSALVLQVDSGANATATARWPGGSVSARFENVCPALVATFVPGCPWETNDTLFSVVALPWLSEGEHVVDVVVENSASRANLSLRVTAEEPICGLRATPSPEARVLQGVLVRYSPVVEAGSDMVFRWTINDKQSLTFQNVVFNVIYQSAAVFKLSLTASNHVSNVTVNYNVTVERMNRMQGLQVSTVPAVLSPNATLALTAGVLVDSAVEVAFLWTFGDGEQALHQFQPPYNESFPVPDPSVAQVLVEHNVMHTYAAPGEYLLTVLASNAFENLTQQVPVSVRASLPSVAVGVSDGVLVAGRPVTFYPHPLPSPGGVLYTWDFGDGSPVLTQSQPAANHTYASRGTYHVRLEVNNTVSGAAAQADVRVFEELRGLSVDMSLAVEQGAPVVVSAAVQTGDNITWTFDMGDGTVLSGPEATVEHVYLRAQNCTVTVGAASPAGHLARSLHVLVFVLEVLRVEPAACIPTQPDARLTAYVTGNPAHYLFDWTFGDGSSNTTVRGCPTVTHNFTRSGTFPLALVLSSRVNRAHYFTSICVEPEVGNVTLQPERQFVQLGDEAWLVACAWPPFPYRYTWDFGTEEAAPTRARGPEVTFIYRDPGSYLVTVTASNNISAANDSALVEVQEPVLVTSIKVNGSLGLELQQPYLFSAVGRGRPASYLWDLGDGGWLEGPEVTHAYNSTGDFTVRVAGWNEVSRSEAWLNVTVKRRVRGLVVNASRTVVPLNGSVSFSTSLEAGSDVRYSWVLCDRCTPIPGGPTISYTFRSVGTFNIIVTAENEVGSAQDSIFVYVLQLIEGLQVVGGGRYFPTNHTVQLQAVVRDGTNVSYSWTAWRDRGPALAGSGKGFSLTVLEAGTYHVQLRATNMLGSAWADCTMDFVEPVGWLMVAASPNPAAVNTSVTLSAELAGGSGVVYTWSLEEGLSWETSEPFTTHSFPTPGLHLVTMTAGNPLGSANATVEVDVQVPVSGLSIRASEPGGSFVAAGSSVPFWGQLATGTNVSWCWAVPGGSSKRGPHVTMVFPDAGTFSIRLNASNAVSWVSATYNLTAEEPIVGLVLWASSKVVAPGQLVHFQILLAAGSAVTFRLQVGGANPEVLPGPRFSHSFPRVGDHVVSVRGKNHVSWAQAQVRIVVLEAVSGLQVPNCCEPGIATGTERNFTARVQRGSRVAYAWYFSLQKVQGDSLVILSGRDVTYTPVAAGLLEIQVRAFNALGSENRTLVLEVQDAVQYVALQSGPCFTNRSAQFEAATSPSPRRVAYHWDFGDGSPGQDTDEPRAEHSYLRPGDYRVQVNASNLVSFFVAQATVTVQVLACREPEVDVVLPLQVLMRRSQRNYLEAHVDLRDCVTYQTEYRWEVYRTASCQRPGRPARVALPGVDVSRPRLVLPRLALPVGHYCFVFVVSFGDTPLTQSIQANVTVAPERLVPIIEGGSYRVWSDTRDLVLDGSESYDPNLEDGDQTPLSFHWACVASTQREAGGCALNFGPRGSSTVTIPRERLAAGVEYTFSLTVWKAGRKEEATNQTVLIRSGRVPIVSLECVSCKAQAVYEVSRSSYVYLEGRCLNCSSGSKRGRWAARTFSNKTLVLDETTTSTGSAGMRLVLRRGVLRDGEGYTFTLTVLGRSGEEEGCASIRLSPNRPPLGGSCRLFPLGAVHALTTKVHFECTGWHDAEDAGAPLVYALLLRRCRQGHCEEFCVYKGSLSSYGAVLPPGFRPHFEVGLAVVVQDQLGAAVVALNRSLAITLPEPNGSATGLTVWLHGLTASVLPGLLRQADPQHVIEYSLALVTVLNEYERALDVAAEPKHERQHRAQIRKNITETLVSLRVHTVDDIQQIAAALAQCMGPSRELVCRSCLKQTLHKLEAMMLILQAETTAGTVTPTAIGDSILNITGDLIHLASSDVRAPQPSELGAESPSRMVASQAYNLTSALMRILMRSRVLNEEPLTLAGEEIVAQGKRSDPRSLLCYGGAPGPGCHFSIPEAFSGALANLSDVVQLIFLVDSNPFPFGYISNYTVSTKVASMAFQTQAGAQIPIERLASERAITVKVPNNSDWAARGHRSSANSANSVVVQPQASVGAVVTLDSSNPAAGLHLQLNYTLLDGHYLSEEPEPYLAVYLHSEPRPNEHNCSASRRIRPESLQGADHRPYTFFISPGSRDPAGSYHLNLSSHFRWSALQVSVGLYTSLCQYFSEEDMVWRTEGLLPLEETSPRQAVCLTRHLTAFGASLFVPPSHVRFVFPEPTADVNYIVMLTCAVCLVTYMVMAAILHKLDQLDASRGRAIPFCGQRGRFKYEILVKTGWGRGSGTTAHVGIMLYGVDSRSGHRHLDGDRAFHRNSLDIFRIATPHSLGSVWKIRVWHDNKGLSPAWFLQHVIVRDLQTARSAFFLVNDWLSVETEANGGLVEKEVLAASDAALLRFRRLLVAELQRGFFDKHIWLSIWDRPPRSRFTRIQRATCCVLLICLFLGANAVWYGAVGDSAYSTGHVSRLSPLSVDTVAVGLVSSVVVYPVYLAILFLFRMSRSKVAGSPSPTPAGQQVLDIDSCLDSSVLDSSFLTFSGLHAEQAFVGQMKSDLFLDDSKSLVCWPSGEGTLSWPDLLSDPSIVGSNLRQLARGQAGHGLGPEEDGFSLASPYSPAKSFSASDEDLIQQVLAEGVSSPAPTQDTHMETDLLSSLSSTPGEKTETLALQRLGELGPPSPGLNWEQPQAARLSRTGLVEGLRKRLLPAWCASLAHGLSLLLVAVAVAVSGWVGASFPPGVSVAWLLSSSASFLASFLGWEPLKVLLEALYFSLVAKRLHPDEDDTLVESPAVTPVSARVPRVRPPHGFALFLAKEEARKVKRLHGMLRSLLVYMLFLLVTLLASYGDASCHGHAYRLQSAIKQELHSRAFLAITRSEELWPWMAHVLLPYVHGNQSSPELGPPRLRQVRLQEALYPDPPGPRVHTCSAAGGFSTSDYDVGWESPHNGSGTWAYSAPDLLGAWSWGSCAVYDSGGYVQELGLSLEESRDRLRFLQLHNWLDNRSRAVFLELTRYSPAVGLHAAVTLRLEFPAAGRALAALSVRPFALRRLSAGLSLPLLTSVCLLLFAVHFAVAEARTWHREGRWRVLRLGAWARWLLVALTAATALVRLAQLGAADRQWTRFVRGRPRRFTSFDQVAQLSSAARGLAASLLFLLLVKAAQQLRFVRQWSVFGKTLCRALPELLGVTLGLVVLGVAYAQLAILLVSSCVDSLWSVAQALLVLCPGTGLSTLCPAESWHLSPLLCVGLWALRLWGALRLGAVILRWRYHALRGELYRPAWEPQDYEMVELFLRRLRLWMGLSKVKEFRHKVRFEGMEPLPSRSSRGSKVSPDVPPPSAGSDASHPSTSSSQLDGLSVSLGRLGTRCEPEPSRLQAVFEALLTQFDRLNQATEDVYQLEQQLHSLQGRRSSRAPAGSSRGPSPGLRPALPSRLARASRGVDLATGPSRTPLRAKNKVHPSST
UniProt Q9UBS4, residues 23-358: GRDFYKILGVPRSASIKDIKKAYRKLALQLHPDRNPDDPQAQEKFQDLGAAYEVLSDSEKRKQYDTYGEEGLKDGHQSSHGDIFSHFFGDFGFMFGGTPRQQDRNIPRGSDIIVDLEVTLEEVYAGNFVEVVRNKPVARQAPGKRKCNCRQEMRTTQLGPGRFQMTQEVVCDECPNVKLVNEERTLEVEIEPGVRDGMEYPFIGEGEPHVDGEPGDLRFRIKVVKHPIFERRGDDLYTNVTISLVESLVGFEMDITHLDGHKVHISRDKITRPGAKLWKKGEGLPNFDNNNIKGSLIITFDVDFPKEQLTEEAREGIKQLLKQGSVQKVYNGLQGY

Target: FLAG-tagged polycystin-1 (PC1) (UniProt P98161)
Experiment: co-IP

- binding: binds
Substance: DNAJB11 (endogenous, HEK 293T) (from UniProt Q9UBS4 23-358)
